These are yes or no findings as the source states them, for the method shown. Binding seen in cells or lysates may run through a third protein. Here binding means that the protein was enriched with, or labelled near, the bait; the list need not be complete.
B1: UGT8 (protein, UniProt Q16880 21-541)
chain: AKIIIVPPIMFESHMYIFKTLASALHERGHHTVFLLSEGRDIAPSNHYSLQRYPGIFNSTTSDAFLQSKMRNIFSGRLTAIELFDILDHYTKNCDLMVGNHALIQGLKKEKFDLLLVDPNDMCGFVIAHLLGVKYAVFSTGLWYPAEVGAPAPLAYVPEFNSLLTDRMNLLQRMKNTGVYLISRLGVSFLVLPKYERIMQKYNLLPEKSMYDLVHGSSLWMLCTDVALEFPRPTLPNVVYVGGILTKPASPLPEDLQRWVNGANEHGFVLVSFGAGVKYLSEDIANKLAGALGRLPQKVIWRFSGPKPKNLGNNTKLIEWLPQNDLLGHSKIKAFLSHGGLNSIFETIYHGVPVVGIPLFGDHYDTMTRVQAKGMGILLEWKTVTEKELYEALVKVINNPSYRQRAQKLSEIHKDQPGHPVNRTIYWIDYIIRHNGAHHLRAAVHQISFCQYFLLDIAFVLLLGAALLYFLLSWVTKFIYRKIKSLWSRNKHSTVNGHYHNGILNGKYKRNGHIKHEKKVK
B2: HSD17B12 (protein, UniProt Q53GQ0 1-312)
chain: MESALPAAGFLYWVGAGTVAYLALRISYSLFTALRVWGVGNEAGVGPGLGEWAVVTGSTDGIGKSYAEELAKHGMKVVLISRSKDKLDQVSSEIKEKFKVETRTIAVDFASEDIYDKIKTGLAGLEIGILVNNVGMSYEYPEYFLDVPDLDNVIKKMININILSVCKMTQLVLPGMVERSKGAILNISSGSGMLPVPLLTIYSATKTFVDFFSQCLHEEYRSKGVFVQSVLPYFVATKLAKIRKPTLDKPSPETFVKSAIKTVGLQSRTNGYLIHALMGSIISNLPSWIYLKIVMNMNKSTRAHYLKKTKKN
B3: TMEM41B (protein, UniProt Q5BJD5 1-291)
chain: MAKGRVAERSQLGAHHTTPVGDGAAGTRGLAAPGSRDHQKEKSWVEAGSARMSLLILVSIFLSAAFVMFLVYKNFPQLSEEERVNMKVPRDMDDAKALGKVLSKYKDTFYVQVLVAYFATYIFLQTFAIPGSIFLSILSGFLYPFPLALFLVCLCSGLGASFCYMLSYLVGRPVVYKYLTEKAVKWSQQVERHREHLINYIIFLRITPFLPNWFINITSPVINVPLKVFFIGTFLGVAPPSFVAIKAGTTLYQLTTAGEAVSWNSIFILMILAVLSILPAIFQKKLKQKFE

Amino acid sequences for entries named in this document (tags omitted).
UniProt O14579: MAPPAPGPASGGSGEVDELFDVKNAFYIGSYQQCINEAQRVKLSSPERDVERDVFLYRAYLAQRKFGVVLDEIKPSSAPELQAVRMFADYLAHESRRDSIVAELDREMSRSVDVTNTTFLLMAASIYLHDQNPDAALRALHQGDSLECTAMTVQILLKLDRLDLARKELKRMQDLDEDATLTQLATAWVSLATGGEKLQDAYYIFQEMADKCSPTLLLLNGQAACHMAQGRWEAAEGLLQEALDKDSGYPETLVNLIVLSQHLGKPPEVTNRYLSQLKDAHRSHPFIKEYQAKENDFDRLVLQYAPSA

Target: GFP-εCOPI (UniProt O14579)
Experiment: affinity purification with mass spectrometry

| Binder | binding |
| --- | --- |
| B1 | binds |
| B2 | binds |
| B3 | binds |

From publication doi:10.1101/2025.07.04.663055
